Laboratory results reported in the supplement of paper PMC12819154, “High-throughput peptide-centric local stability assay extends protein–ligand identification to membrane proteins, tissues and bacteria” (Nature Structural & Molecular Biology, 2025).
This is one part of the list. Most values lie at the level of the controls, where differences are scatter.

The chains behind the UniProt entries cited, without tags or fusion partners. Where a name states a change or a piece, a line headed by the entry shows the natural chain unless it says otherwise.
UniProt Q6A0A9: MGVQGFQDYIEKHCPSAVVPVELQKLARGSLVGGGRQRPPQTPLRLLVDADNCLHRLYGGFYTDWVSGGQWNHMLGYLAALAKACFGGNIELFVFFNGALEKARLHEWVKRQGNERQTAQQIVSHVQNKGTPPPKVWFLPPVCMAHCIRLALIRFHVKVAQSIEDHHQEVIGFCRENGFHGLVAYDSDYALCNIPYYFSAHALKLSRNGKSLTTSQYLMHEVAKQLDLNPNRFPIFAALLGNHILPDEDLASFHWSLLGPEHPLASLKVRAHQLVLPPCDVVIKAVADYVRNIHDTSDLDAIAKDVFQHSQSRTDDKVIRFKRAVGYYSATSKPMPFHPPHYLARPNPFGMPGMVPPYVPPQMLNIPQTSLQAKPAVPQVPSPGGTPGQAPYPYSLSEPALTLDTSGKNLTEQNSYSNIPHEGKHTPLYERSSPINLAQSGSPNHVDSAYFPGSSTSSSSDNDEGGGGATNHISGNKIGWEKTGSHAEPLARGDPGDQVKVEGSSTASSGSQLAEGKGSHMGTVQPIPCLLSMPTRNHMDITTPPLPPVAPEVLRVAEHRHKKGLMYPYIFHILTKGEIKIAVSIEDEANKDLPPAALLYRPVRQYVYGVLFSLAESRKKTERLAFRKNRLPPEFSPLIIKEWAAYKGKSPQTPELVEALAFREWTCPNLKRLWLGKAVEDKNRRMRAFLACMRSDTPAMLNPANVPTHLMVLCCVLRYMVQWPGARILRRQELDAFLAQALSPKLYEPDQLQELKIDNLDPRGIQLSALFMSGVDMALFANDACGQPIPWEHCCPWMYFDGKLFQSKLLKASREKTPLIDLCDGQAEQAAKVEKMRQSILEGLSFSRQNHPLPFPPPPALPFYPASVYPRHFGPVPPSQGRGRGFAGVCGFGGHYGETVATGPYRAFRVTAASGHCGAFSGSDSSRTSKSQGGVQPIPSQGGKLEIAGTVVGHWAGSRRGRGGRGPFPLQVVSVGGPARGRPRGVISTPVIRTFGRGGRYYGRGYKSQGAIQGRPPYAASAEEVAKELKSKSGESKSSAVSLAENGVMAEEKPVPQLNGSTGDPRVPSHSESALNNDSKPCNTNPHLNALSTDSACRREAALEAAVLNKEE
UniProt Q62419: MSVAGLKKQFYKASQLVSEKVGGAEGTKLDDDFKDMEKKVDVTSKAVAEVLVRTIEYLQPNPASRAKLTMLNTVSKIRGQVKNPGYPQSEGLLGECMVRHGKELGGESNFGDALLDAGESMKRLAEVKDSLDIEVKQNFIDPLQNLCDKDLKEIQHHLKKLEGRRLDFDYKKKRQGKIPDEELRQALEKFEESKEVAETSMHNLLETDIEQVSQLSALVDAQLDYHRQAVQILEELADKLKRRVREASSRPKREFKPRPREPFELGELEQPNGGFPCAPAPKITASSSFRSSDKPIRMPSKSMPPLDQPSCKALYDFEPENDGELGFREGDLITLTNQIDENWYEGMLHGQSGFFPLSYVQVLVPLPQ
UniProt Q62087: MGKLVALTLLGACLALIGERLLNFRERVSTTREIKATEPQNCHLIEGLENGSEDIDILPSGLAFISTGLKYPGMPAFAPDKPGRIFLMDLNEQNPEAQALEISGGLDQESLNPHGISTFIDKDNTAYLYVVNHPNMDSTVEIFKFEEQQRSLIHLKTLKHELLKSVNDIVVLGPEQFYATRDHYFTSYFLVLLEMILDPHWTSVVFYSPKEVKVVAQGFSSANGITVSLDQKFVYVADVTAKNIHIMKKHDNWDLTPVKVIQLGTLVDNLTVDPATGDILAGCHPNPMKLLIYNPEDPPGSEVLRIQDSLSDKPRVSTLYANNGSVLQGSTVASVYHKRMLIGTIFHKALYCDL
UniProt Q60932, whole entry: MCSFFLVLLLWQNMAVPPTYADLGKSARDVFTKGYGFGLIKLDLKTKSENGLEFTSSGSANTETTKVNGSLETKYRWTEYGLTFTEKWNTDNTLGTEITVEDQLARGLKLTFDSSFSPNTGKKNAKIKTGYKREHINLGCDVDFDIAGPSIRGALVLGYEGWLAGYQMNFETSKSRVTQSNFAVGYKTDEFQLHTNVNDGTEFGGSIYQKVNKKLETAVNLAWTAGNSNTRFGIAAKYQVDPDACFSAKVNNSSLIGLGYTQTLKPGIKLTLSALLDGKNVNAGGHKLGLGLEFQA
UniProt Q62277, whole entry: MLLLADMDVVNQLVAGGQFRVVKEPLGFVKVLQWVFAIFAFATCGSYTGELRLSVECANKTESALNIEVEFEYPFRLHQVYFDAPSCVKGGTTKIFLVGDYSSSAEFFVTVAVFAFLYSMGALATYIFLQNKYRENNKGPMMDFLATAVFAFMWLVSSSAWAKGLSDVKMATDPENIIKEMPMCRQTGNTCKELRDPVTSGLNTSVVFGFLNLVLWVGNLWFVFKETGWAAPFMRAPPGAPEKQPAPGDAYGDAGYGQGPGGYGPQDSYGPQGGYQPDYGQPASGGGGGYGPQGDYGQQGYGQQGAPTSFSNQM
UniProt Q60749, whole entry: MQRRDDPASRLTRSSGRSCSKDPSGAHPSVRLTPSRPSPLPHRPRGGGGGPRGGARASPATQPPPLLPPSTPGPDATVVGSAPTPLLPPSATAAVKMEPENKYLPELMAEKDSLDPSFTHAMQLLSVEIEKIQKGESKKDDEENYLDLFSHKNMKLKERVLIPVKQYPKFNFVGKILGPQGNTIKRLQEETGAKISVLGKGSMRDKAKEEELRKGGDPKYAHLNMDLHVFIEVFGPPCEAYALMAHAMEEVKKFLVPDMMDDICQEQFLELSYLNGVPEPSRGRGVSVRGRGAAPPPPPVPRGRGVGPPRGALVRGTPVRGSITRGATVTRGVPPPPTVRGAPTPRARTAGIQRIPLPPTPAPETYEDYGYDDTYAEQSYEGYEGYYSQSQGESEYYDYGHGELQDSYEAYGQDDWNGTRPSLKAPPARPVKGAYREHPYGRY
UniProt Q62179: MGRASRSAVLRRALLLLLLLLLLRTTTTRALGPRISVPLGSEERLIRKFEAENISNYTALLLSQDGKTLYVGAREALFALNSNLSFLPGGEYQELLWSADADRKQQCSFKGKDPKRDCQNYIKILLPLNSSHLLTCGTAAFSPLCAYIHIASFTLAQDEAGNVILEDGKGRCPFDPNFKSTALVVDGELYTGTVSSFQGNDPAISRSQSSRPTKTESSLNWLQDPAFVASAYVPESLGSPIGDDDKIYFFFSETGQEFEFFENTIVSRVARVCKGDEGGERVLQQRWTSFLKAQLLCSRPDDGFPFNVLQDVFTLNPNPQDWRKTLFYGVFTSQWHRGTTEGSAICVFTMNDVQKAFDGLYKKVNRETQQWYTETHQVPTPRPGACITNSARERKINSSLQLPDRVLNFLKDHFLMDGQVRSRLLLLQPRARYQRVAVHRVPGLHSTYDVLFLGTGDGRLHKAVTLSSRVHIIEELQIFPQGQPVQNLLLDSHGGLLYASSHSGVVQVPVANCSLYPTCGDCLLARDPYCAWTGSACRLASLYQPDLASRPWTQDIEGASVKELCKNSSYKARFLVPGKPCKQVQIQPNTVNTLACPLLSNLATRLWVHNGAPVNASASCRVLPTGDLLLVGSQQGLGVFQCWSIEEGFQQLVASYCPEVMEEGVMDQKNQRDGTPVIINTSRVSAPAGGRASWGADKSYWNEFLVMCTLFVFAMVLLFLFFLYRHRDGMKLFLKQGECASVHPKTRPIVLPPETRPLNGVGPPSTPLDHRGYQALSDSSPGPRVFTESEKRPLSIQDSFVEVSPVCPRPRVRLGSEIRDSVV
UniProt Q62193: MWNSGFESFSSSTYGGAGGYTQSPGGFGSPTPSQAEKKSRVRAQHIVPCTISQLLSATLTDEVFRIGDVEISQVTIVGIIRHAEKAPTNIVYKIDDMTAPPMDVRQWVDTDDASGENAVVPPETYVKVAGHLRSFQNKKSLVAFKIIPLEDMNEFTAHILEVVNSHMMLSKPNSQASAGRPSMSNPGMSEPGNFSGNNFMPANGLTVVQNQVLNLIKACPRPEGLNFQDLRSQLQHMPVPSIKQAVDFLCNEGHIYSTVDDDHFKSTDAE
UniProt Q5RKZ7: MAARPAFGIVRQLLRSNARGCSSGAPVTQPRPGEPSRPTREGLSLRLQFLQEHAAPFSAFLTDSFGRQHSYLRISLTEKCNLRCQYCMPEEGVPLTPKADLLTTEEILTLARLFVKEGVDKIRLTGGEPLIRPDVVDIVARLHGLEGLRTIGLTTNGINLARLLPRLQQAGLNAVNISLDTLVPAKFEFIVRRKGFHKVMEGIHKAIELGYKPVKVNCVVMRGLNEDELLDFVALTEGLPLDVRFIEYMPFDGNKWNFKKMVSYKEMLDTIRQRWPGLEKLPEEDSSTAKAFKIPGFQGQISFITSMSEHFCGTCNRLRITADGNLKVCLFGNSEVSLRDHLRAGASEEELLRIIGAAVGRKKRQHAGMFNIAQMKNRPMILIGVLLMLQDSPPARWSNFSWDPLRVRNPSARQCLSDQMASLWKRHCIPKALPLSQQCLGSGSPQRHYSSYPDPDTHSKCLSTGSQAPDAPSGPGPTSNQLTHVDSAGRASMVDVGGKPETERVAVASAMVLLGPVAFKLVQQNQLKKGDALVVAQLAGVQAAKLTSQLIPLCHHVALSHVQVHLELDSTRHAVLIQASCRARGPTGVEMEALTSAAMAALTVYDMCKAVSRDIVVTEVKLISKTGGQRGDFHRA
UniProt Q62165: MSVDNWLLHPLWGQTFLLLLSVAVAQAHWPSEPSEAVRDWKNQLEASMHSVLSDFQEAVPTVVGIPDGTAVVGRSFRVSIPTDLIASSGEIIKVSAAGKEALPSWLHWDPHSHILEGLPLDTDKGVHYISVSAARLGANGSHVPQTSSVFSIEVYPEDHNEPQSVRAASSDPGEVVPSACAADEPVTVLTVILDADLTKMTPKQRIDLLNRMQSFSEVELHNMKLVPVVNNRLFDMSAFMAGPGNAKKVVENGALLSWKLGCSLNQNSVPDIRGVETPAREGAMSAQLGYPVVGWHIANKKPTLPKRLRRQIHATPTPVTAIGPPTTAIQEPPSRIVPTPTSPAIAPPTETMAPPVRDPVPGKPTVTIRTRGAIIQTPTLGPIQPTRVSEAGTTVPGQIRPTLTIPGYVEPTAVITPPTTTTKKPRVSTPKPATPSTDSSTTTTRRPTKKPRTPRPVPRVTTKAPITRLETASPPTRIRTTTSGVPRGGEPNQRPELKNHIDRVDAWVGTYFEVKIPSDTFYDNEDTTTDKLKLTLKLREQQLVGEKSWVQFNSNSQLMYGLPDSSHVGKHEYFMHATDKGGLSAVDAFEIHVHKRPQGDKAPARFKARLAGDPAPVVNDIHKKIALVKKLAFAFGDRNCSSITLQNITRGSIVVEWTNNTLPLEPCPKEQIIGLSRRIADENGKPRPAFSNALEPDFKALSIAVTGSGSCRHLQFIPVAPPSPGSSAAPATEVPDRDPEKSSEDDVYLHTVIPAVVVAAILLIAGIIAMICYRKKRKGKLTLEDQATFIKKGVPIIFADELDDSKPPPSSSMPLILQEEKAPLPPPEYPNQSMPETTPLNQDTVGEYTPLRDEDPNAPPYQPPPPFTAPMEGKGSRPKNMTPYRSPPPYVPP
UniProt Q61941: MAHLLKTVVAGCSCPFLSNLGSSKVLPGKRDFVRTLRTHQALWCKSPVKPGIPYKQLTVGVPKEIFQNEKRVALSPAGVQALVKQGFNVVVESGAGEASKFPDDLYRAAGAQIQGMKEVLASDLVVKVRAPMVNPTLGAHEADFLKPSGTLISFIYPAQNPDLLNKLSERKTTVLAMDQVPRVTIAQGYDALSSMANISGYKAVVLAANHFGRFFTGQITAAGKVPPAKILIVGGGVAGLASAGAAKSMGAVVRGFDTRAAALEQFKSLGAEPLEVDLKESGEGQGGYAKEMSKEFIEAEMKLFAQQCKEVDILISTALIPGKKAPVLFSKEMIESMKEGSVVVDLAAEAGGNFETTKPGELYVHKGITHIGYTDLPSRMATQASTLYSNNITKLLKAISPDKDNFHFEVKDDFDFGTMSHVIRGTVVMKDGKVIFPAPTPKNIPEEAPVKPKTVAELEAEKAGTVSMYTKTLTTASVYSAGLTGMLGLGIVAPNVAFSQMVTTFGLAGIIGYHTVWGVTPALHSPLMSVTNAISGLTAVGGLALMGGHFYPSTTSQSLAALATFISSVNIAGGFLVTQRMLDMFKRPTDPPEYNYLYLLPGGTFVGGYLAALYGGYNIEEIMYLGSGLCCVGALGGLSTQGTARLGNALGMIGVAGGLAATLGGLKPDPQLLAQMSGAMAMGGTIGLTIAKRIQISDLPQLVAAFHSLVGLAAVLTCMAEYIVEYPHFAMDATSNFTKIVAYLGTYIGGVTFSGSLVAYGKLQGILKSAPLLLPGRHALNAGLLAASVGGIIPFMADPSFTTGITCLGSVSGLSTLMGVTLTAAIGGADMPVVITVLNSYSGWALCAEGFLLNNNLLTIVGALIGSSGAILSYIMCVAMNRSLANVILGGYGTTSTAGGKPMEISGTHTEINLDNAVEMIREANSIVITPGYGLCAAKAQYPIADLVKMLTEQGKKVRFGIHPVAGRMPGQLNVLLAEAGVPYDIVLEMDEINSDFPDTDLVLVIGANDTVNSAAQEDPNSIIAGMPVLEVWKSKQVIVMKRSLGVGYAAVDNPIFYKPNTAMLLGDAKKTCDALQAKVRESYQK

Compound: CN[C@@H]1C[C@H]2O[C@@](C)([C@@H]1OC)n1c3ccccc3c3c4c(c5c6ccccc6n2c5c31)C(=O)NC4 [staurosporine]
Experiment: log2 fold change of pooled soluble protein (PISA), ligand vs vehicle (log2 ratio); higher = more thermally stabilized
Details: ligand concentration: 20 uM; assay format: PISA pool 52.9/55.5/58.6 C

Row | Target | log2 fold change of pooled soluble protein
1 | UniProt Q61830 | 0.0384
2 | UniProt Q6A0A9 | 0.0418
3 | UniProt Q64105 | -0.0212
4 | UniProt Q60931 | -0.0674
5 | UniProt Q64458 | 0.0508
6 | UniProt Q61035 | 0.0118
7 | UniProt Q60770 | -0.232
8 | UniProt Q62419 | -0.202
9 | UniProt Q62422 | 0.268
10 | UniProt Q61553 | -0.0263
11 | UniProt Q60974 | -0.0785
12 | UniProt Q62087 | 0.0786
13 | UniProt Q61191 | -0.00792
14 | UniProt Q62504 | 0.0477
15 | UniProt Q60766 | -0.0251
16 | UniProt Q61730 | 0.143
17 | UniProt Q5SZA1 | 0.157
18 | UniProt Q60864 | -0.074
19 | UniProt Q62318 | -0.00392

A section taken from the entries so far:
Row | Target | log2 fold change of pooled soluble protein
6 | UniProt Q61035 | 0.0118
7 | UniProt Q60770 | -0.232
8 | UniProt Q62419 | -0.202
9 | UniProt Q62422 | 0.268
10 | UniProt Q61553 | -0.0263
11 | UniProt Q60974 | -0.0785
12 | UniProt Q62087 | 0.0786
13 | UniProt Q61191 | -0.00792
14 | UniProt Q62504 | 0.0477

More records.

Row | Target | log2 fold change of pooled soluble protein
20 | UniProt Q62418 | -0.0776
21 | UniProt Q62465 | -0.0131
22 | UniProt Q60932 | -0.167
23 | UniProt Q61144 | 0.347
24 | UniProt Q61686 | 0.149
25 | UniProt Q62277 | -0.242
26 | UniProt Q60749 | 0.0439
27 | UniProt Q62179 | -0.179
28 | UniProt Q6NS57 | -0.0574
29 | UniProt Q6NXI6 | 0.025
30 | UniProt Q64669 | 0.0112
31 | UniProt Q62193 | -0.0752
32 | UniProt Q60649 | -0.165
33 | UniProt Q61937 | 0.0748
34 | UniProt Q5RKZ7 | -0.0504
35 | UniProt Q62165 | -0.00523
36 | UniProt Q62264 | -0.24
37 | UniProt Q61941 | 0.0159
